Data as given in PubChem BioAssay AID686943 (Drosophila RNAi Screening Center, 2013)
In all, the deposit lists about 23,000 reagents; shown is an unselected part of those that have a named target and a result. 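Extra replicates exist only for a retested subset of genes; insulin dose and duration not given; both raised and lowered dpERK matter.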 Names joined by + are all predicted targets of the reagent. Reagent sequences are not shown. The record does not give: the amount of reagent, the time to read-out.

- Aim: 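Search across the genome for regulators of signalling from receptor tyrosine kinase to ERK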 (primary screen)
- Cell system: Drosophila S2R+ haemocyte-like cells expressing YFP-tagged ERK (Rolled)
- Knock-down reagent: long dsRNA against Drosophila genes
- Challenge: insulin stimulation versus unstimulated cells; dose and duration not given
- Detection: 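Antibody staining for doubly phosphorylated ERK divided by ERK-YFP signal, as plate z-scores, in insulin-treated and untreated cells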
- Reading the numbers: replicate 1, z-score of dpERK with insulin and replicate 2, z-score of dpERK with insulin: higher = more active ERK per ERK-YFP after insulin; replicate 1, z-score of dpERK under basal conditions: higher = more basal active ERK per ERK-YFP; replicate 1, z-score of ERK-YFP with insulin: higher = more YFP-tagged ERK signal

| Gene | PubChem SID | replicate 1, z-score of dpERK with insulin | replicate 2, z-score of dpERK with insulin | replicate 1, z-score of dpERK under basal conditions | replicate 1, z-score of ERK-YFP with insulin |
| --- | --- | --- | --- | --- | --- |
| CG34204 | SID104183689 | -0.19 | -1.21 | -0.92 | 1.03 |
| CG6362 | SID104187205 | 0.1 | 0 | 0.05 | 0.34 |
| CG32301 | SID104188405 | -0.93 | -0.84 | -0.36 | 0.48 |
| CG13578 | SID104184006 | -0.03 | 0.09 | -0.49 | 0.06 |
| CR42785 | SID104184754 | -0.86 | -1.42 | -1.26 | 1.01 |
| CG12523 | SID104189687 | 0.18 | -0.09 | 1.1 | 0.2 |
| CG31262 | SID104193008 | 0.66 | 0.85 | -0.7 | -0.17 |
| uif | SID104180755 | 2.63 | 1.15 | 0.3 | -1.71 |
| uif | SID104183219 | 0.58 | 0.12 | 0.12 | 0.31 |
| CG34248 | SID104189218 | -1.22 | -0.14 | -0.37 | -0.47 |
| CG16739 | SID104186413 | -1 | -0.07 | 0.76 | 1.14 |
| acs | SID104187977 | 0.36 | -0.28 | -0.94 | 0.09 |
| Non2 | SID104188064 | -0.04 | 0.14 | 0.6 | 0.49 |
| Prp5 | SID104199767 | 1.48 | 2.93 | 1.45 | -0.85 |
| regucalcin | SID104198700 | 1.11 | 0.87 | 0.78 | -1.76 |
| regucalcin | SID104200158 | -0.39 | -0.47 | -0.44 | 0.53 |
| Gp150 | SID104184410 | 1.19 | 1.36 | -0.25 | -0.81 |
| Treh | SID104184340 | 0.72 | 0.16 | -0.27 | 0.13 |
| DUBAI | SID104187073 | -0.21 | -0.08 | -0.47 | -0.43 |
| CG42306 + Gint3 | SID104186726 | -0.27 | -0.13 | -0.13 | -1.26 |
| parvin | SID104199260 | 0.7 | 1.51 | -0.42 | 0.3 |
| Mtmr6 | SID104183838 | 0.29 | 0.12 | -0.16 | -0.09 |

Sorted by “replicate 1, z-score of dpERK under basal conditions” (high to low): 4 of the entries above.
| Gene | PubChem SID | replicate 1, z-score of dpERK with insulin | replicate 2, z-score of dpERK with insulin | replicate 1, z-score of dpERK under basal conditions | replicate 1, z-score of ERK-YFP with insulin |
| --- | --- | --- | --- | --- | --- |
| Prp5 | SID104199767 | 1.48 | 2.93 | 1.45 | -0.85 |
| CG16739 | SID104186413 | -1 | -0.07 | 0.76 | 1.14 |
| Non2 | SID104188064 | -0.04 | 0.14 | 0.6 | 0.49 |
| acs | SID104187977 | 0.36 | -0.28 | -0.94 | 0.09 |

Next reagents follow:
| Gene | PubChem SID | replicate 1, z-score of dpERK with insulin | replicate 2, z-score of dpERK with insulin | replicate 1, z-score of dpERK under basal conditions | replicate 1, z-score of ERK-YFP with insulin |
| --- | --- | --- | --- | --- | --- |
| CG17124 | SID104182372 | -0.5 | 0.45 | 0.12 | -0.46 |
| Trs20 | SID104190281 | 0.11 | -0.01 | 2.6 | 1.88 |
| CG3558 | SID104180407 | 0.6 | 0.27 | -0.13 | 0.46 |
| Ir100a | SID104194121 | 0.15 | -1.06 | -0.23 | -0.03 |
| CG10283 | SID104181826 | -0.8 | -0.16 | 0.23 | -0.92 |
| RluA-2 | SID104182731 | 1.18 | -0.67 | 0.48 | 0.04 |
| srw | SID104187993 | -0.24 | -0.26 | -0.28 | -0.35 |
| CG8818 | SID104187067 | 0.53 | 0.31 | -0.45 | -0.44 |
| CG8888 | SID104187086 | -0.32 | 0.47 | 0.57 | 0.41 |
| CG8888 | SID104187087 | -1.2 | -0.12 | -0.21 | 1.34 |
| smog | SID104180126 | 0.93 | 0.3 | 1.25 | 0.65 |
| smog | SID104180127 | -3.35 | -3.33 | -1.76 | 0.17 |
| CG9806 | SID104198236 | 0.64 | 0.45 | 0.09 | -1.32 |
| Rbp9 | SID104180208 | 0.08 | -0.35 | 1.61 | -0.08 |
| Rbp9 | SID104180571 | 1.17 | 0.43 | 0.26 | -0.08 |
| CG17786 | SID104195062 | -0.1 | 0 | -0.62 | 0.04 |
| Ilp3 | SID104189960 | 1.16 | 0.04 | 0.46 | -0.26 |
